Assay results: PubChem BioAssay AID588590 (National Center for Advancing Translational Sciences (NCATS), 2011)
Among all 390,000 compounds or so, about 4,000 (1%) were called active. The shares of active, inactive and inconclusive entries below differ from those in the screen. The call rests on the fitted dose curve; in most records, active means well fitted inhibition curve with a large enough effect; inconclusive means small, poorly fitted or top-dose-only effect, or another doubt; inactive means no such curve, though single readings can be large or run the other way. Potencies of inconclusive entries are doubtful fits and often do not repeat.

Protein sequences, listed by entry. Tags and fused reporters are not part of them. Lines headed by an entry give the natural chain unless they say otherwise; changes in a name come on top.
UniProt Q9UNA4: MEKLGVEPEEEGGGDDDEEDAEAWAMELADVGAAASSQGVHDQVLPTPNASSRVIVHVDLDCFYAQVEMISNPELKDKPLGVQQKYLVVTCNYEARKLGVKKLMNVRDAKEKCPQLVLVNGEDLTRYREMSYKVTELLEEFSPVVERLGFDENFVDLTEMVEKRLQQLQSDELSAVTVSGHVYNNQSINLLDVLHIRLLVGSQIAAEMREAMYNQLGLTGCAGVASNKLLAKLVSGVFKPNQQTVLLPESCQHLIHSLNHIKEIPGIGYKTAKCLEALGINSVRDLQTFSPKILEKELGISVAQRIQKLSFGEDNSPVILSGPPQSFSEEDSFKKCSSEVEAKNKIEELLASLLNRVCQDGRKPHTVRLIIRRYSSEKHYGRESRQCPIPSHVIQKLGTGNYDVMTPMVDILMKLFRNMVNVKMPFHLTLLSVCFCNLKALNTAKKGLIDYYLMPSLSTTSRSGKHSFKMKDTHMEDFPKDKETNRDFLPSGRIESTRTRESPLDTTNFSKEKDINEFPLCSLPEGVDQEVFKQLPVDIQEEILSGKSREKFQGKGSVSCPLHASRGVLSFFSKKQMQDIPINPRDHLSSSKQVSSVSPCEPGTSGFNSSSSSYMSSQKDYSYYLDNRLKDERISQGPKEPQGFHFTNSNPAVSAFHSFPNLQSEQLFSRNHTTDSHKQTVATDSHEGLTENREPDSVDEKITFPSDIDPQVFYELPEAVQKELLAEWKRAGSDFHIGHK

target: DNA polymerase iota (Homo sapiens) (UniProt Q9UNA4); assay: qHTS for Inhibitors of Polymerase Iota; conditions: Pol iota fluorescent replication assay, 10 min; series mostly up to 115 µM; activity, negative = inhibition: at the top concentration
Outline: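 Pol iota at 10 nM preincubated 15 min with compounds at room temperature; reaction started with fluorescent substrate, 50 nM final. Fluorescence read kinetically at 0 and 10 min; buffer-only wells as negative control.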
Potency means the concentration at half of the fitted maximal effect.

activity, negative = inhibition, inactive:
CCOC(=O)C1=C(C)NC(=O)CC1c1ccccc1 (centres undefined) -11.8%
COc1cc2nc(SCC(=O)Nc3c(C)cc(C)cc3C)n3nc(CCn4c(C)nc5ccccc54)nc3c2cc1OC 13.5%
CS(=O)(=O)c1ccc2nc(NC(=O)c3ccccc3)sc2c1 112%
CCn1c2ccccc2c2nnc(SCc3ccc(C(=O)OC)o3)nc21 3.15%
CCOc1cc(/C=N/Nc2cc(C)nc(-n3nc(C)cc3C)n2)ccc1O 13%
CCCN(CCC)C(=O)Cn1c(=O)n(-c2ccccc2)c(=O)c2c3c(sc21)CCCC3 20.8%
CCCCc1nn2c(=O)cc(COC(=O)c3cccc(NC(=O)CCc4ccccc4)c3)nc2s1 1.91%
CCc1ccc(-n2c(=O)c3c(C)c(C)sc3n(CC(=O)NCc3ccc(C)cc3)c2=O)cc1 6.57%
Cc1cc(=O)n2cccc(O)c2n1 22.7%
COc1ccccc1C(=O)Nc1nnc(SCc2cc(=O)c3cc(Cl)ccc3[nH]2)s1 -21.9%
N#CCC(=O)Nc1ccc(C(=O)OCC(=O)Nc2ccc3ccccc3c2)cc1 -5.7%
COc1cc(/C=C2\C(=N)N3N=C(S(C)(=O)=O)SC3=NC2=O)ccc1OCCOc1ccccc1C 48.5%
CCOC(=O)C1CCN(CCCSc2ccc(C)cc2)CC1 27%
Cc1ccc(-n2nc(CO)c(C(=O)NC(C)CCCc3ccccc3)n2)cc1C (centres undefined) 7.73%
CCCN1CNc2c(c(=O)[nH]c(=S)n2CCc2ccccc2C)C1 32.4%

Potency, inconclusive:
CCOc1ccc(NCc2nc3ccccc3n2CCOc2ccccc2)cc1 89.1 µM [inhibitor, single point]
Cc1cccc(OCCCCc2c(C)n[nH]c2C)c1 50.1 µM [inhibitor, partial curve]
N#Cc1cc2c(nc1SCC(=O)Nc1sc3c(c1C#N)CCC3)CCC2 35.5 µM [inhibitor, full curve, poor fit]
Cc1nc2c3ccccc3nc(NNC(=O)CCC(=O)NCCN3CCN(c4ccccc4)CC3)n2n1 15.8 µM [inhibitor, partial curve]
Cc1ccc(OCC(=O)O/N=C(\N)Cc2cccs2)cc1C 39.8 µM [inhibitor, single point]
Cc1nc2nc(SCC(=O)c3ccccc3)[nH]c2cc1Br 39.8 µM [inhibitor, partial curve, poor fit]
N#C/C(=C/c1ccc(Cl)cc1)c1nc(-c2ccc(Br)cc2)cs1 89.1 µM [inhibitor, single point]
CCOC(=O)C1=C(N)Oc2c(oc(CO)cc2=O)C1c1ccc(Cl)cc1 (centres undefined) 89.1 µM [inhibitor, partial curve, poor fit]
COc1ccc(C2c3c(ncn(CCN4CCOCC4)c3=N)Oc3ccc4ccccc4c32)cc1OC (centres undefined) 56.2 µM [inhibitor, partial curve, poor fit]
Cc1ccc(S(=O)(=O)N(CCCN(C)C)Cc2ccc3c(c2)OCO3)cc1 2 µM [inhibitor, partial curve, poor fit]
CN(C)S(=O)(=O)c1cccc(C(=O)NCc2ccco2)c1 0.631 µM [inhibitor, full curve, poor fit]
O=C1CCC(=O)N1OCCOc1ccccc1 100 µM [inhibitor, partial curve, poor fit]
C#Cc1ccc([C@H]2C=C(C(=O)OCC=C)O[C@@H](OCc3ccc(CO)cc3)C2)cc1 56.2 µM [inhibitor, partial curve, poor fit]
FC(F)(F)c1cc(CO[C@@H]2CCCN[C@@H]2c2ccccc2)cc(C(F)(F)F)c1 28.2 µM [inhibitor, single point]
COc1ccc(C(=O)N/C(=C\c2cn(C)c3ccccc23)C(=O)OCC(C)C)cc1 100 µM [inhibitor, single point]
Cc1c[n+]([O-])n(-c2ccc(C(=O)O)cc2)n1 11.2 µM [inhibitor, partial curve, poor fit]
COc1cc(/C=C2/C(=O)ON=C2C)ccc1OCc1ccccc1F 2 µM [inhibitor, full curve, poor fit]
COc1ccc(CN(Cc2ccccc2)C(=O)c2ccc(O)cc2)cc1COc1ccc(NC(C)=O)cc1 35.5 µM [inhibitor, partial curve, poor fit]
FC(F)Oc1ccc(C2=Nn3c(nnc3-c3ccccc3Cl)SC2)cc1OCC1CC1 79.4 µM [inhibitor, partial curve, poor fit]
Cc1ccc(-c2nc(N/N=C/c3ccncc3)c3ccccc3n2)cc1 1.41 µM [inhibitor, full curve, poor fit]
Cc1cc(OCC(=O)NCCO)cc(C)c1Cl 39.8 µM [inhibitor, partial curve, poor fit]
N#Cc1ccsc1NC(=O)CN1CCN(c2ccc(O)cc2)CC1 56.2 µM [inhibitor, partial curve, poor fit]
Cc1cc2cc(C(c3nnnn3Cc3ccco3)N3CCc4ccccc43)c(=O)[nH]c2cc1C (centres undefined) 28.2 µM [inhibitor, single point]
O=C(O)CCCN1C(=O)/C(=C\C(Cl)=C\c2ccccc2)SC1=S 7.94 µM [inhibitor, full curve, poor fit]
CSc1nnc(NC(=O)c2nc(S(=O)(=O)Cc3ccccc3F)ncc2Cl)s1 35.5 µM [inhibitor, partial curve, poor fit]
Cc1ccc(N(CC(=O)NCc2ccc(F)cc2)S(=O)(=O)c2c(C)nn(C)c2C)cc1 89.1 µM [inhibitor, single point]
Cc1sc2ncnc(Nc3ccccc3)c2c1C 3.98 µM [inhibitor, full curve, poor fit]
CN(C)CCCSc1nc2ccccc2s1 89.1 µM [inhibitor, single point]
CCC1Nc2ncnc(N3CCOCC3)c2N(Cc2ccc(Br)cc2)C1=O (centres undefined) 14.1 µM [inhibitor, partial curve]
O=C(Nc1ccc(F)c(Cl)c1)c1ccccc1 39.8 µM [inhibitor, single point]
O=C(CSc1nncc2ccccc12)Nc1ccc(C(=O)O)cc1 28.2 µM [inhibitor, partial curve]
CCC(=O)Nc1ccc2nc(SCCOc3ccccc3)sc2c1 89.1 µM [inhibitor, single point]
CCC(C)(C)NC(=O)C(c1ccc(OC)cc1)N(Cc1ccco1)C(=O)CCC(=O)Nc1cc(C)on1 (centres undefined) 1.26 µM [inhibitor, full curve, poor fit]
O=C(Nc1ccc2oc(-c3ccccc3F)nc2c1)c1ccc([N+](=O)[O-])o1 3.98 µM [inhibitor, full curve, poor fit]
COc1ccc2cc(OCC(=O)NNC(=O)Nc3ccc(C(C)=O)cc3)ccc2c1 79.4 µM [inhibitor, single point]
CCC(CC)C(=O)Nc1cccc(/C(C)=N/NC(=O)c2ccccc2Cl)c1 22.4 µM [inhibitor, single point]
O=C(Cn1cnc2c(NCc3ccccc3)ncnc21)NCc1ccc2[nH]ccc2c1 79.4 µM [inhibitor, partial curve, poor fit]
CN(C)c1ccc(/C=C(/NC(=O)c2ccccc2)C(=O)N/N=C/c2ccc([N+](=O)[O-])c(O)c2)cc1 56.2 µM [inhibitor, partial curve, poor fit]
CCOC(=O)C(O)C1CCc2c([nH]c3ccc(C)cc23)C1=O (centres undefined) 15.8 µM [inhibitor, full curve, poor fit]
CC(NC(=O)c1ccc([N+](=O)[O-])o1)C1CC2CCC1C2 (centres undefined) 3.16 µM [inhibitor, partial curve, poor fit]
CC(C)(C)C(=O)N1CCN(C(=O)c2ccco2)CC1 70.8 µM [inhibitor, single point]
CC1(C)Cc2ccccc2C(/C(=N/O)C(N)=O)=N1 89.1 µM [inhibitor, partial curve, poor fit]
O=C(O)CCc1ccc(-c2ccccc2)o1 14.1 µM [inhibitor, partial curve, poor fit]
Cc1cccc(CN2C(=O)NC(c3ccccc3)(c3ccccc3)C2=O)c1 15.8 µM [inhibitor, partial curve, poor fit]
Cc1ccc(C(=O)OCC(=O)Nc2sc3c(c2C#N)CCCCC3)cc1NC(=O)c1ccco1 39.8 µM [inhibitor, single point]

Looked up one by one from above:
Potency, inconclusive:
CC(NC(=O)c1ccc([N+](=O)[O-])o1)C1CC2CCC1C2 (centres undefined) 3.16 µM [inhibitor, partial curve, poor fit]
Cc1ccc(OCC(=O)O/N=C(\N)Cc2cccs2)cc1C 39.8 µM [inhibitor, single point]
O=C(Nc1ccc2oc(-c3ccccc3F)nc2c1)c1ccc([N+](=O)[O-])o1 3.98 µM [inhibitor, full curve, poor fit]

Next part.

Potency, inactive:
CCn1c(C)c(C)c2cc(C(=O)NCCCN3CCCCC3)ccc21

Potency, active:
C#CCOCCOCCOCCNc1nc(N2CCN(C(=O)[C@H](Cc3ccc(O)cc3)n3cc([C@@H](N)C(C)CC)nn3)CC2)nc(N2CCN(C(=O)[C@H](Cc3cc4ccccc4[nH]3)n3cc([C@@H](N)C(C)CC)nn3)CC2)n1 (some centres undefined) 28.2 µM
O=C(CCC1N=C2c3ccccc3N=C(SCc3ccc(Cl)cc3)N2C1=O)NCCc1ccccc1 (centres undefined) 89.1 µM
Cc1nc(NC(=O)COC(=O)/C=C/c2ccco2)c(Cl)cc1Cl 31.6 µM
